Laboratory results: article PMC3288073
For at least one entry, the source does not settle the construct or the ends of the probe. At least one verdict was read from the data and is not stated in words by the source.

Test system: thrombin (Recothrom), recombinant human (Homo sapiens)
Experiment: BLI
Settings: biotinylated aptamer on SA tip, 30 C, BLI: Octet RED96, SA tips, buffer not stated, recombinant protein, folded or branched DNA

Row | Sequence | binding result
1 | ACCCGTGGTAGGGTAGGATGGGGTGGT [Aptamer 30-38/27] | binds
2 | AGATGCCTGTCGAGCATGCTGTGAATAGGTAGGGTCGGATGGGCTACGGTGTAGCTAAACTGCTTTGTCGACGGG [Aptamer 30-8] | binds
3 | AGATGCCTGTCGAGCATGCTGTTGTGGTAGGGTTAGGGATGGTAGCGGTTGTAGCTAAACTGCTTTGTCGACGG [Aptamer 30-14] | binds
4 | CAGTCCGTGGTAGGGCAGGTTGGGGTGACTTCGTGGAA [Aptamer 60-18/38] | binds
5 | TACCGTGGTAGGGAAGGTTGGAGTGTA [Aptamer 30-16/27] | binds
